Test results published in patent US20240417371A1, “CANNABIDIOL DERIVATIVE, AND PREPARATION METHOD THEREFOR AND USE THEREOF” (priority 2021, published 2024).
At least one compound was matched to its structure with a doubt left.

Legend:
Bax = assay: WB detection of apoptosis-related protein Bax in hippocampal tissues of PTZ-kindling rats; type: in vivo, Wistar rats; details: hippocampus at end of 14-day treatment, 100 mg/kg intragastric, versus model group
Description: (§1) At the end of the experiment, the brains and hippocampi of the laboratory animals were collected and frozen at −80° C.
(§2) 4. WB Detection of Expression of Apoptosis-Related Proteins Bax and Bcl-2 in Hippocampal Tissues of Rats:
(§3) The hippocampal tissue was cut into small pieces, the lysis buffer (protease and phosphatase inhibitors added to the lysis buffer) was added at a ratio of 150-250 μL:20 mg, and the mixture was homogenized with a homogenizer until complete lysis. The sample obtained after the lysis was centrifuged at 12,000 g at 4° C. for 15 min. The supernatant was taken, subjected to protein quantification, and stored in a refrigerator at −80° C.
(§4) • (1) Standard curve plotting: a microplate was taken, and reagents were added according to the table below. […]
(§5) About 25 μg of the protein was loaded into each well, and the loading amount can be increased according to the experiment requirements. According to the results of protein quantification, the required protein was taken and a proper amount of sample loading buffer was added. […]

Bcl-2 = assay: WB detection of apoptosis-related protein Bcl-2 in hippocampal tissues of PTZ-kindling rats; type: in vivo, Wistar rats; details: hippocampus at end of 14-day treatment, 100 mg/kg intragastric
Description: as §1, §2, §3, §4, §5

## C=C(C)[C@@H]1CCC(C)=C[C@H]1c1c(OCC(=O)N[C@@H](CCSC)C(=O)[O-])cc(CCCCC)cc1OCC(=O)N[C@@H](CCSC)C(=O)[O-].[Na+].[Na+] [Compound E2]
Bax
  Bax protein expression in hippocampal tissues: significant down-regulation of Bax protein expression
Bcl-2
  Bcl-2 protein expression in hippocampal tissues: significantly higher than that in the model group
